Measurements: patent publication US20210260113A1, “DEVICES, METHODS, COMPOSITIONS AND SYSTEMS FOR THE TREATMENT OF AGING AND AGE-RELATED DISORDERS” (Gero LLC, priority 2018, published 2021)
For at least one compound, name, drawing or mass did not settle the structure.

Test system: C57BL/6 male mice aged 106 weeks
Experiment: Animal survival rates and lifespan
Type: in vivo
Conditions: antibody once via IV injection, rapamycin 42 ppm, FIG. 4

Compound: CO[C@H]1C[C@@H]2CC[C@@H](C)[C@@](O)(O2)C(=O)C(=O)N2CCCC[C@H]2C(=O)O[C@H]([C@H](C)C[C@@H]2CC[C@@H](O)[C@H](OC)C2)CC(=O)[C@H](C)/C=C(\C)[C@@H](O)[C@@H](OC)C(=O)[C@H](C)C[C@H](C)/C=C/C=C/C=C/1C [rapamycin]
- lifespan (survival curves): significant improvement in lifespan
- mortality delay: roughly a month
